Measurements published in patent US20220273007A1, “FUNCTIONAL FOOD FOR PREVENTING OR IMPROVING DYSURIA” (MARUHACHI MURAMATSU, INC., priority 2019, published 2022).
At least one structure is not confirmed: it was looked up by name or label, or the drawing left a doubt.

Test system: rat bladder smooth muscle
Assay: Organ bath assay: 80 mM KCl contractile inhibition assay
Conditions: fatty acid at amount present in 95% ethanol extract of akamoku (EPA 71 μg/mL, stearidonic acid 47 μg/mL)
Experimental: The concentration of each fatty acid was set according to the amount thereof present in a 95% ethanol extract of akamoku (Japan Food Research Laboratories; JFRL quantitative analysis). […] Ethanol was used as a control. As in the example described above, 80 mM KCl, a contraction inducer, was also added to induce contraction. The tension (contractile force) of slices of rat bladder smooth muscle was then measured to evaluate contraction inhibition effects. […]
The maximum concentration of each fatty acid was set according to the amount thereof present in a 95% ethanol extract of akamoku (JFRL quantitative analysis). Concentrations of 7.1 μg/mL EPA, 21.3 μg/mL EPA, 71 μg/mL EPA, 4.7 μg/mL stearidonic acid, 14.1 μg/mL stearidonic acid, and 47 μg/mL stearidonic acid were set. As in the examples described above, 80 mM KCl, a contraction inducer, was also added to induce contraction. The tension (contractile force) of slices of rat bladder smooth muscle was then measured to evaluate contraction inhibition effects.

CC/C=C\C/C=C\C/C=C\C/C=C\C/C=C\CCCC(=O)O [EPA, eicosapentaenoic acid]
inhibition of 80 mM KCl contraction: significantly inhibited contraction
